Results deposited as PubChem BioAssay AID1259308 (NCATS, 2017).

- Aim: 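Genes whose loss raises luciferase production in HEK293 cells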 (primary screen)
- Cell system: human HEK293 embryonic kidney cells stably expressing firefly luciferase (HEK-CMV-Luc2-Hygro)
- Knock-down reagent: single siRNA against human genes, 0.8 pmol siRNA per well
- Time to read-out: 72 h
- Detection: 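Reporter luminescence and viable-cell signal on separate replicate plates, given as percent of non-targeting control and median/MAD z-scores, plus per-cell luciferase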
- Scale: total luciferase, z-score and total luciferase, % of control: higher = more reporter protein produced
- Hit rule: 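An siRNA counts as active if its total luciferase robust z-score exceeds 3; genes with two or more such siRNAs out of three were retested with fresh siRNAs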
- Calls: active = raised luciferase; inactive = no rise
The whole screen tested about 59,000 reagents; shown is an unselected part. About 1,510 of them (2.6%) count as active. 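Calls use total luciferase alone and ignore viability, so some active siRNAs may act by altering cell number.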 The numbers tell different reagents against one gene apart. Not all columns of the deposit are shown.

With CACNB1 (calcium voltage-gated channel auxiliary subunit beta 1) #1, what does the deposit list?
total luciferase, z-score: -2.09; total luciferase, % of control: 40.4; Call: inactive

Which result is listed for CACNB1 (calcium voltage-gated channel auxiliary subunit beta 1) #2?
total luciferase, z-score: 0.0192; total luciferase, % of control: 82.3; Call: inactive

What did the screen give for CACNB1 (calcium voltage-gated channel auxiliary subunit beta 1) #3?
total luciferase, z-score: 3.15; total luciferase, % of control: 145; Call: active

Which result is listed for ODAM (odontogenic, ameloblast associated) #1?
total luciferase, z-score: 0.379; total luciferase, % of control: 89.4; Call: inactive

For ODAM (odontogenic, ameloblast associated) #2, how do the results read?
total luciferase, z-score: 0.741; total luciferase, % of control: 96.6; Call: inactive

Which result is listed for ODAM (odontogenic, ameloblast associated) #3?
total luciferase, z-score: -0.56; total luciferase, % of control: 70.7; Call: inactive

For OR4F6 (olfactory receptor family 4 subfamily F member 6) #1, what was measured?
total luciferase, z-score: 0.781; total luciferase, % of control: 97.4; Call: inactive

With OR4F6 (olfactory receptor family 4 subfamily F member 6) #2, how do the results read?
total luciferase, z-score: -1.51; total luciferase, % of control: 51.8; Call: inactive

With OR4F6 (olfactory receptor family 4 subfamily F member 6) #3, what does the deposit list?
total luciferase, z-score: -1.54; total luciferase, % of control: 51.3; Call: inactive

For ASMTL (acetylserotonin O-methyltransferase like) #1, what does the deposit list?
total luciferase, z-score: -0.626; total luciferase, % of control: 69.4; Call: inactive

With ASMTL (acetylserotonin O-methyltransferase like) #2, what does the deposit list?
total luciferase, z-score: -1.22; total luciferase, % of control: 57.7; Call: inactive

For ASMTL (acetylserotonin O-methyltransferase like) #3, how do the results read?
total luciferase, z-score: -0.312; total luciferase, % of control: 75.7; Call: inactive

For B4GALNT3 (beta-1,4-N-acetyl-galactosaminyltransferase 3) #1, what does the deposit list?
total luciferase, z-score: -0.243; total luciferase, % of control: 77; Call: inactive

For B4GALNT3 (beta-1,4-N-acetyl-galactosaminyltransferase 3) #2, what does the deposit list?
total luciferase, z-score: -1.12; total luciferase, % of control: 59.7; Call: inactive

How did the screen score B4GALNT3 (beta-1,4-N-acetyl-galactosaminyltransferase 3) #3?
total luciferase, z-score: 3.61; total luciferase, % of control: 154; Call: active

For MXD1 (MAX dimerization protein 1) #1, how do the results read?
total luciferase, z-score: 0.412; total luciferase, % of control: 90.1; Call: inactive

How did the screen score MXD1 (MAX dimerization protein 1) #2?
total luciferase, z-score: -0.714; total luciferase, % of control: 67.7; Call: inactive

What did the screen give for MXD1 (MAX dimerization protein 1) #3?
total luciferase, z-score: 2.29; total luciferase, % of control: 127; Call: inactive

What is on record for CDT1 (chromatin licensing and DNA replication factor 1) #1?
total luciferase, z-score: 1.63; total luciferase, % of control: 114; Call: inactive

With CDT1 (chromatin licensing and DNA replication factor 1) #2, what does the deposit list?
total luciferase, z-score: -1.29; total luciferase, % of control: 56.3; Call: inactive

With CDT1 (chromatin licensing and DNA replication factor 1) #3, what was measured?
total luciferase, z-score: 1.62; total luciferase, % of control: 114; Call: inactive

Targets above whose gene name starts with C or c (6):
CACNB1 (calcium voltage-gated channel auxiliary subunit beta 1) #1 → total luciferase, z-score: -2.09; total luciferase, % of control: 40.4; Call: inactive
CACNB1 (calcium voltage-gated channel auxiliary subunit beta 1) #2 → total luciferase, z-score: 0.0192; total luciferase, % of control: 82.3; Call: inactive
CACNB1 (calcium voltage-gated channel auxiliary subunit beta 1) #3 → total luciferase, z-score: 3.15; total luciferase, % of control: 145; Call: active
CDT1 (chromatin licensing and DNA replication factor 1) #1 → total luciferase, z-score: 1.63; total luciferase, % of control: 114; Call: inactive
CDT1 (chromatin licensing and DNA replication factor 1) #2 → total luciferase, z-score: -1.29; total luciferase, % of control: 56.3; Call: inactive
CDT1 (chromatin licensing and DNA replication factor 1) #3 → total luciferase, z-score: 1.62; total luciferase, % of control: 114; Call: inactive

The results go on.
With TEX29 (testis expressed 29) #1, what does the deposit list?
total luciferase, z-score: 1.71; total luciferase, % of control: 116; Call: inactive

What did the screen give for TEX29 (testis expressed 29) #2?
total luciferase, z-score: 0.315; total luciferase, % of control: 88.1; Call: inactive

For TEX29 (testis expressed 29) #3, what does the deposit list?
total luciferase, z-score: 0.883; total luciferase, % of control: 99.5; Call: inactive

With KDM2B (lysine demethylase 2B) #1, what was measured?
total luciferase, z-score: 0.61; total luciferase, % of control: 94; Call: inactive

For KDM2B (lysine demethylase 2B) #2, what does the deposit list?
total luciferase, z-score: 0.198; total luciferase, % of control: 85.8; Call: inactive

For KDM2B (lysine demethylase 2B) #3, how do the results read?
total luciferase, z-score: -1.18; total luciferase, % of control: 58.4; Call: inactive

With DTX2 (deltex E3 ubiquitin ligase 2) #1, what was measured?
total luciferase, z-score: -1.46; total luciferase, % of control: 52.8; Call: inactive

What did the screen give for DTX2 (deltex E3 ubiquitin ligase 2) #2?
total luciferase, z-score: -1.88; total luciferase, % of control: 44.5; Call: inactive

With DTX2 (deltex E3 ubiquitin ligase 2) #3, how do the results read?
total luciferase, z-score: -1.42; total luciferase, % of control: 53.6; Call: inactive

With IYD (iodotyrosine deiodinase) #1, what was measured?
total luciferase, z-score: 1.06; total luciferase, % of control: 103; Call: inactive

With IYD (iodotyrosine deiodinase) #2, how do the results read?
total luciferase, z-score: -0.241; total luciferase, % of control: 77.1; Call: inactive

How did the screen score IYD (iodotyrosine deiodinase) #3?
total luciferase, z-score: -0.32; total luciferase, % of control: 75.5; Call: inactive
